Measurements from patent US20250084126A1, “PEPTIDE AND COMPOSITION” (OSAKA UNIVERSITY, priority 2021, published 2025).
Not every detail of the peptide structures is certain; ends, links or a residue may be inferred. Some compounds share one wording; it may come from a single statement. No end group written: not given here.

Tests used:
hDPSCs [1] = assay: WST-1-assay proliferative capacity of hDPSCs; assay type: cell-based, human; conditions: 0.1, 1, 10, 100 μg/ml, 3 days culture, versus PBS control, p>0.05
[2] = tested on: exposed pulp of rat molars; assay: Direct pulp capping experiment using Protein S100 family-derived peptide; assay type: in vivo; conditions: 4 weeks; for closure of the surface of the exposed pulp (HE staining): representative samples with complete tertiary dentin formation
Method: To evaluate the effect of the Protein S100 family-derived peptide on ability of forming of the tertiary dentin, a direct pulp capping experiment was performed on rat molars using a gelatin sponge (Spongel®) soaked with 20 μl of each PBS solution containing the No. 28, No. 47, No. 32, or No. 51 peptide at a concentration of 100 μg/ml using the same way as described in the section 1) of “Materials and Methods” of the section 1 of the section I above. PBS solution containing the S100-A8 (PROSPEC, Israel), the PBS solution containing the S100-A9 (PROSPEC), wherein the S100-A8 and S100-A9 are a recombinant of the protein from which the peptide was derived, at a concentration of 1 μg/ml, and the PBS solution alone were used as controls. After 4 weeks from the capping treatment, the micro-CT imaging and image analysis were performed on the tertiary dentin formed just below the exposed pulp. An evaluation method, in which the amount of formed tertiary dentin observed in histopathological images was scored, in the direct pulp capping experiment conducted by Okamoto et al. in the past, was applied to the micro-CT images in this study, and the evaluation was performed by scoring the formed tertiary dentin [Clinical Oral Investigations 2018, 22(8):2879-2887; Journal of Dentistry 2010, 38(10):828-837]. The evaluation was performed by one person, with a score of Grade 0 in cases where the tertiary dentin was formed in only one-third or less of the exposed pulp region, Grade 1 in cases where the tertiary dentin was formed in one-third to two-thirds of the exposed pulp region, Grade 2 in cases where the tertiary dentin was formed in two-thirds or more of the exposed pulp region, and Grade 3 in cases where the formed tertiary dentin was completely covering the exposed pulp region. In addition, the same micro-CT images were analyzed using the same way as described in the section 2) of “Materials and Methods” of the section 1 of the section I above to evaluate the volume of the formed tertiary dentin. HE staining was also performed using the same way as described in the section 3) of “Materials and Methods” of the section 1 of the section I above, and histopathological evaluation of the formation of the tertiary dentin was performed. The number of samples was 8 for each condition.
The statistical significance test in the above experiment was performed using the One-way ANOVA and Tukey's test for a cytotoxicity test and Kruskal-Wallis-test for a cell proliferation test and a comparison of the amount of formed tertiary dentin in the direct pulp capping experiment, with a critical value of 5%.

hDPSCs [3] = assay: Proteome analysis (LC-MS/MS) of proteins expressed by hDPSCs; assay type: cell-based, human; conditions: 0.1 mM, 7 days
Method: The No. 28 peptide or the recombinant S100-A8, the protein from which the No. 28 peptide is derived, was applied to the hDPSCs to compare and quantify the proteins expressed by the hDPSCs by the LC-MS/MS. The hDPSCs were seeded in a 100 mm cell culture dish at 3,000,000 cells/plate in the mineralization induction medium containing each of the samples containing the No. 28 peptide or the S100-A8 at a concentration of 0.1 mM, and cultured at 37° C. in the 5% CO2 gas phase for 7 days. Then, plasma membrane and cytoplasmic proteins were extracted using a plasma membrane protein extraction kit (Cosmo Bio Co., Ltd., Tokyo). As a practical procedure, the hDPSCs were cultured for 7 days, collected with a scraper, added with Buffer A included in the kit, and left on ice for 10 minutes. The hDPSCs were then transferred into a microtube with a filter cartridge included in the kit and centrifuged at 14,000 rpm for 30 seconds. After discarding the cartridge and agitating for 10 seconds, the microtube was centrifuged at 3000 rpm for 1 minute and the supernatant was collected. The collected supernatant was then centrifuged at 14,000 rpm for 30 minutes to extract the cytoplasmic proteins separated in a supernatant and the plasma membrane proteins separated in pellet. As a control, the hDPSCs cultured in mineralization induction medium supplemented with the PBS were used.
Each sample was analyzed by liquid chromatography using UltiMate 3000 Nano LC systems (Thermo Fisher Scientific, USA) and ESI-column (0.075×150 mm) (Thermo Fisher Scientific). A 0.1% formic acid aqueous solution containing acetonitrile was used as a mobile phase at a flow rate of 300 nL/min. The concentration of acetonitrile was 5% for the first 5 min, increased to 40% in 95 min, then increased at a constant rate for 2 min to 90%, and maintained for 5 min. The peptides were analyzed using Q-Exactive (Thermo Fisher Scientific). Identification and quantitative analysis of the proteins were performed by peptide mass fingerprinting using Mascot Distiller v2.5, Mascot Server v2.5 (Matrix Science, USA), and UniProt on obtained MS/MS spectra.
In addition, to evaluate changes in expression levels of the proteins, the following criteria were used to narrow down the identified plasma membrane-derived and cytoplasm-derived proteins among the samples.
• Proteins whose measured values were higher in the S100-A8 group than in the control group • Proteins whose measured values in the peptide group are more than twice as high as those in the control group • Proteins whose measured values in both the peptide group and the S100-A8 group are equal to or greater than 1 (a.u.; arbitrary unit)
• Proteins whose measured values were lower in the S100-A8 group than in the control group • Proteins whose measured values in the control group are more than twice as high as those in the peptide group • Proteins whose measured values in the control group are equal to or greater than 1 (a.u.; arbitrary unit)
Each of the groups narrowed down by the above criteria was analyzed using Gene Ontology (GO) classification. The GO provides an internationally standardized GO Term, which is intended to describe biological functions. The GO Term is organized in a hierarchical structure, with the upper order representing general functions and the lower order representing more detailed functions. For example, there are three categories at the top: “Molecular function,” “Biological process,” and “Cellular component.”
The GO Term belonging to “Molecular function” and “Biological process” which represent their respective functions from the above classification were searched for the protein groups obtained in this experiment, and the functions characteristic to each protein group were examined.

[4] = mineralization induction medium, count for No. 28 peptide or S100-A8 jointly

Sequence	effect on the proliferative capacity of hDPSCs (WST-1-assay) (hDPSCs [1])	number of samples with tertiary dentin formation that completely sealed the exposed pulp region ([2]; micro-CT scoring, n=8 per condition, peptides 100 μg/ml, recombinant proteins 1 μg/ml, 20 μl in gelatin sponge) [samples]	volume of the tertiary dentin versus No. 47 peptide or the PBS ([2]; micro-CT, 100 μg/ml, p<0.05)	volume of the tertiary dentin versus the other samples ([2]; micro-CT, 100 μg/ml, p>0.05)	closure of the surface of the exposed pulp (HE staining) [2]	expression levels of proteins promoting MAPK signaling pathway (MAP2K1, CDH2, NRAS, MAP1, CRK, PSMB7) versus control (hDPSCs [3]; GO Term analysis)	expression levels of proteins promoting NFκB signaling pathway (FLOT1, 3KCR1, LYRIC, GJA1, S100A-13, NOL3) versus control (hDPSCs [3]; GO Term analysis)	cytoplasm-derived proteins whose expression levels were more decreased than in the control (hDPSCs [3]; [4]) [proteins]	cytoplasm-derived proteins whose expression levels were more increased than in the control (hDPSCs [3]; [4]) [proteins]	plasma membrane-derived proteins whose expression levels were more decreased than in the control (hDPSCs [3]; [4]) [proteins]	plasma membrane-derived proteins whose expression levels were more increased than in the control (hDPSCs [3]; [4]) [proteins]
ELVRKDLQN [No. 47 peptide, Glu-Leu-Val-Arg-Lys-Asp-Leu-Gln-Asn]	no effect on cell proliferation										
KLLETECPQ [No. 28 peptide, Lys-Leu-Leu-Glu-Thr-Glu-Cys-Pro-Gln]	no effect on cell proliferation	5	significantly higher	no significant difference	completely closed by the formed tertiary dentin	decreased	more increased	67	250	97	158
NADKQLSFE [No. 51 peptide, Asn-Ala-Asp-Lys-Gln-Leu-Ser-Phe-Glu]	no effect on cell proliferation				completely closed by the formed tertiary dentin						
NTDGAVNFQ [No. 32 peptide, Asn-Thr-Asp-Gly-Ala-Val-Asn-Phe-Gln]	no effect on cell proliferation				completely closed by the formed tertiary dentin						
